Measurements published in patent US8524454 (RESEARCH FOUNDATION OF STATE UNIVERSITY OF NEW YORK, dated 2013).
No constants are given. Whether binding was seen depends on the method and setting. Some results given as binding are weak or reduced against the parent protein; the word gives no strength.

Sequences of proteins named here, by UniProt entry; tags and fusion partners are left off. A change or cut given only in a name is not applied to a line headed by its entry.
UniProt Q9NPF0: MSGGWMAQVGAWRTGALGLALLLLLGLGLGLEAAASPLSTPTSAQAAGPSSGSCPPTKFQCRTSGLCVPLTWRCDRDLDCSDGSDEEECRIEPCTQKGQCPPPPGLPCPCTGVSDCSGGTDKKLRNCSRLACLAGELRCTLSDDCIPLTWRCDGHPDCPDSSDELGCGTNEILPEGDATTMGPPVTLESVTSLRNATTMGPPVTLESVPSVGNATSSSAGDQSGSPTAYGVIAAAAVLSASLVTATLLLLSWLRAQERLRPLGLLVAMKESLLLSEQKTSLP

Key:
[1] = target: T1, wheat germ agglutinin (WGA)-agarose (UniProt P10968); experiment: lectin binding (carbohydrate-mediated)
T1 sequence (looked up): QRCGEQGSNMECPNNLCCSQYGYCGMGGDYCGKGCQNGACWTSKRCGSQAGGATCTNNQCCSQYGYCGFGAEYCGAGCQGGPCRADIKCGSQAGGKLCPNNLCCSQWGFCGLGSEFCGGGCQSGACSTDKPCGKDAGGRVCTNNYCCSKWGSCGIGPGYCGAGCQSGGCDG

[2] = target: T1, wheat germ agglutinin (WGA)-agarose; experiment: lectin affinity chromatography (carbohydrate-mediated)
[3] = target: recombinant extracellular fragment of TCblR produced in HEK 293 cells (human) (UniProt Q9NPF0); experiment: TC-Cbl binding assay of HEK 293 culture medium
[4] = target: recombinant extracellular fragment of TCblR produced in HEK 293 cells (human) (UniProt Q9NPF0); experiment: purified fragment; assay not described

## recombinant extracellular (EXC) domain of TCblR produced in NSO myeloma cells, cleaved from the Fc fusion protein (from UniProt Q9NPF0 36-229) (receptor)
[1]
  binding: binds

## recombinant extracellular fragment of TCblR produced in HEK 293 cells (from UniProt Q9NPF0 32-247) (receptor)
[2]
  binding: binds

B1: holo-transcobalamin (recombinant human TC saturated with cobalamin) (ligand, UniProt P20062 19-427, looked up)
chain: EMCEIPEMDSHLVEKLGQHLLPWMDRLSLEHLNPSIYVGLRLSSLQAGTKEDLYLHSLKLGYQQCLLGSAFSEDDGDCQGKPSMGQLALYLLALRANCEFVRGHKGDRLVSQLKWFLEDEKRAIGHDHKGHPHTSYYQYGLGILALCLHQKRVHDSVVDKLLYAVEPFHQGHHSVDTAAMAGLAFTCLKRSNFNPGRRQRITMAIRTVREEILKAQTPEGHFGNVYSTPLALQFLMTSPMRGAELGTACLKARVALLASLQDGAFQNALMISQLLPVLNHKTYIDLIFPDCLAPRVMLEPAAETIPQTQEIISVTLQVLSLLPPYRQSISVLAGSTVEDVLKKAHELGGFTYETQASLSGPYLTSVMGKAAGEREFWQLLRDPNTPLLQGIADYRPKDGETIELRLVSW
notes: also called TC-Cbl; holo TC
[3]
  binding: binds
[4]
  binding: binds
